The target of test [1] is Human CD16B (FcγRIIIB), His-tagged (human) (UniProt O75015). The test can be described thus: SPR single cycle, His-tagged receptor captured, antibody as analyte.
Test [2] has the same target. The test can be described thus: SPR single cycle, relative binding grade.

Protein sequences, listed by entry. Tags and fused reporters are not part of them. Residues count along the entry.
UniProt O75015, residues 17-200: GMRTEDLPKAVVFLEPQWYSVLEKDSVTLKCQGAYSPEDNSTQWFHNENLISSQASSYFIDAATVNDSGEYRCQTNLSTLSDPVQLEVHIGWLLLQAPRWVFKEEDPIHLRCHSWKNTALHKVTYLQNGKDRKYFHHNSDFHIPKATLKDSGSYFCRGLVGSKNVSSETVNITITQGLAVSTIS

These are yes or no findings as the source states them, for the method shown. Some entries that bind do so weakly or less than the wild type.

B1: HMW-MAA_IGEG-dFcRn (antibody, human IgG1, kappa)
heavy: EVQLVQSGGGLVQPGGSLKLSCAVSGFTFSNYWMNWVRQAPGKGLEWVGEIRLKSNNFGRYYAESVKGRFTISRDDSKNTAYLQMNSLKTEDTAVYYCTSYGNYVGHYFDHWGQGTLVTVSSASTQSPSVFPLTRCCKNIPSNATSVTLGCLATGYFPEPVMVTWDTGSLNGTTMTLPATTLTLSGHYATISLLTVSGAWAKQMFTCRVAHTPSSTDWVDNKTFSVCSRDFTPPTVKILQSSCDGGGHFPPTIQLLCLVSGYTPGTINITWLEDGQVMDVDLSTASTTQEGELASTQSELTLSQKHWLSDRTYTCQVTYQGHTFEDSTKKCADSNPRGVSAYLSRPSPFDLFIRKSPTITCLVVDLAPSKGTVNLTWSRASGKPVNHSTRKEEKQRNGTLTVTSTLPVGTRDWIEGETYQCRVTHPHLPRALMRSTTKTSGPRAAPEVYAFATPEWPGSRDKRTLACLIQNFMPEDISVQWLHNEVQLPDARHSTTQPRKTKGSGFFVFSRLEVTRAEWEQKDEFICRAVHEAASPSQTVQRAVSVNPGKRSEPKSCDKTHTCPPCPAPELLGGPSVFLFPPKPKDTLMASRTPEVTCVVVDVSHEDPEVKFNWYVDGVEVHNAKTKPREEQYNSTYRVVSVLTVLAQDWLNGKEYKCKVSNKALPAPIEKTISKAKGQPREPQVYTLPPSREEMTKNQVSLTCLVKGFYPSDIAVEWESNGQPENNYKTTPPVLDSDGSFFLYSKLTVDKSRWQQGNVFSCSVMHEALHNAYTQKSLSLSPGK
light: DIQLTQSPSFLSASVGDRVTITCKASQNVDTNVAWYQQKPGKAPKPLLFSASYRYTGVPSRFSGSGSGTDFTLTISSLQPEDFATYFCQQYNSYPLTFGGGTKVEIKRTVAAPSVFIFPPSDEQLKSGTASVVCLLNNFYPREAKVQWKVDNALQSGNSQESVTEQDSKDSTYSLSSTLTLSKADYEKHKVYACEVTHQGLSSPVTKSFNRGEC
Consider B1, for which the binding entry in test [1] and in test [2] was “binds” throughout.

B2: HMW-MAA_IGEG-C220S-dFcRn (antibody)
heavy: EVQLVQSGGGLVQPGGSLKLSCAVSGFTFSNYWMNWVRQAPGKGLEWVGEIRLKSNNFGRYYAESVKGRFTISRDDSKNTAYLQMNSLKTEDTAVYYCTSYGNYVGHYFDHWGQGTLVTVSSASTQSPSVFPLTRCCKNIPSNATSVTLGCLATGYFPEPVMVTWDTGSLNGTTMTLPATTLTLSGHYATISLLTVSGAWAKQMFTCRVAHTPSSTDWVDNKTFSVCSRDFTPPTVKILQSSCDGGGHFPPTIQLLCLVSGYTPGTINITWLEDGQVMDVDLSTASTTQEGELASTQSELTLSQKHWLSDRTYTCQVTYQGHTFEDSTKKCADSNPRGVSAYLSRPSPFDLFIRKSPTITCLVVDLAPSKGTVNLTWSRASGKPVNHSTRKEEKQRNGTLTVTSTLPVGTRDWIEGETYQCRVTHPHLPRALMRSTTKTSGPRAAPEVYAFATPEWPGSRDKRTLACLIQNFMPEDISVQWLHNEVQLPDARHSTTQPRKTKGSGFFVFSRLEVTRAEWEQKDEFICRAVHEAASPSQTVQRAVSVNPGKRSEPKSSDKTHTCPPCPAPELLGGPSVFLFPPKPKDTLMASRTPEVTCVVVDVSHEDPEVKFNWYVDGVEVHNAKTKPREEQYNSTYRVVSVLTVLAQDWLNGKEYKCKVSNKALPAPIEKTISKAKGQPREPQVYTLPPSREEMTKNQVSLTCLVKGFYPSDIAVEWESNGQPENNYKTTPPVLDSDGSFFLYSKLTVDKSRWQQGNVFSCSVMHEALHNAYTQKSLSLSPGK
light: DIQLTQSPSFLSASVGDRVTITCKASQNVDTNVAWYQQKPGKAPKPLLFSASYRYTGVPSRFSGSGSGTDFTLTISSLQPEDFATYFCQQYNSYPLTFGGGTKVEIKRTVAAPSVFIFPPSDEQLKSGTASVVCLLNNFYPREAKVQWKVDNALQSGNSQESVTEQDSKDSTYSLSSTLTLSKADYEKHKVYACEVTHQGLSSPVTKSFNRGEC
B2: the binding result in test [1] and in test [2] was “binds” in each case.
